Experimental data from PMC12143594.
These are yes or no findings as the source states them, for the method shown. In cells and extracts the contact can be indirect. Some binding calls cover weakened binding; strength is not graded here. For some of these results: Where a sequence is shown, tags or fusion partners need not be part of it.

Amino acid sequences for entries named in this document (tags omitted).
UniProt Q92878: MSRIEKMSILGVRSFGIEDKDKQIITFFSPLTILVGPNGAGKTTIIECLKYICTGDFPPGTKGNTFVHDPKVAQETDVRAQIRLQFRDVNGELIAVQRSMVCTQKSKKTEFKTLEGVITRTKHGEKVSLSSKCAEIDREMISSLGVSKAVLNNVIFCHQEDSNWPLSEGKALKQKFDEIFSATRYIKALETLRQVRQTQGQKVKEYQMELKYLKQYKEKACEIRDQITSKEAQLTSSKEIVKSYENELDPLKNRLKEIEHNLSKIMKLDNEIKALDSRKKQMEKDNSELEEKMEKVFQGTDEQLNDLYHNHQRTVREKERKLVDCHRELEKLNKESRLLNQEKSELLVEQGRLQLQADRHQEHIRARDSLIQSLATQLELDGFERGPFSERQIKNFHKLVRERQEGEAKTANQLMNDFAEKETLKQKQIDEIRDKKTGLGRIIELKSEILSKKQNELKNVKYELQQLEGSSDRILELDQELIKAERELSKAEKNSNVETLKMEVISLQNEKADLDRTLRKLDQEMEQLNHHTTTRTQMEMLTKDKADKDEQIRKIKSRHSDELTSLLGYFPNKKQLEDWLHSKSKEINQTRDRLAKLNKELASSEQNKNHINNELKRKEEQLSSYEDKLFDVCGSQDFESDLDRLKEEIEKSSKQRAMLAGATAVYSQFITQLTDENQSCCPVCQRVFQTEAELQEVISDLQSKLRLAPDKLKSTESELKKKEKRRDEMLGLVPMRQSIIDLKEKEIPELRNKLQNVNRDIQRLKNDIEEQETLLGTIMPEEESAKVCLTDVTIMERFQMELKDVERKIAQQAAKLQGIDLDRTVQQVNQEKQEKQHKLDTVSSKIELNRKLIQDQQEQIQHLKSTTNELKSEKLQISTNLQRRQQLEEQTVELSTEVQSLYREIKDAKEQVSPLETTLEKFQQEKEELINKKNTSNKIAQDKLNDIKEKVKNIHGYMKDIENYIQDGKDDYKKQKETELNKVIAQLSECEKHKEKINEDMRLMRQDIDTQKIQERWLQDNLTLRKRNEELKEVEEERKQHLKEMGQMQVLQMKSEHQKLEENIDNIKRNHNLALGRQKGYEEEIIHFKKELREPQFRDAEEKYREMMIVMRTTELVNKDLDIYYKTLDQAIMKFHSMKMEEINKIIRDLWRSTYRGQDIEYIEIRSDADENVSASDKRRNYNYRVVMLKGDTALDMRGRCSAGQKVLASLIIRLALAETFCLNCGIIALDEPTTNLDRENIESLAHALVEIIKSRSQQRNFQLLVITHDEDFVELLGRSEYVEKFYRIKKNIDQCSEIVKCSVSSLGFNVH
UniProt O60934: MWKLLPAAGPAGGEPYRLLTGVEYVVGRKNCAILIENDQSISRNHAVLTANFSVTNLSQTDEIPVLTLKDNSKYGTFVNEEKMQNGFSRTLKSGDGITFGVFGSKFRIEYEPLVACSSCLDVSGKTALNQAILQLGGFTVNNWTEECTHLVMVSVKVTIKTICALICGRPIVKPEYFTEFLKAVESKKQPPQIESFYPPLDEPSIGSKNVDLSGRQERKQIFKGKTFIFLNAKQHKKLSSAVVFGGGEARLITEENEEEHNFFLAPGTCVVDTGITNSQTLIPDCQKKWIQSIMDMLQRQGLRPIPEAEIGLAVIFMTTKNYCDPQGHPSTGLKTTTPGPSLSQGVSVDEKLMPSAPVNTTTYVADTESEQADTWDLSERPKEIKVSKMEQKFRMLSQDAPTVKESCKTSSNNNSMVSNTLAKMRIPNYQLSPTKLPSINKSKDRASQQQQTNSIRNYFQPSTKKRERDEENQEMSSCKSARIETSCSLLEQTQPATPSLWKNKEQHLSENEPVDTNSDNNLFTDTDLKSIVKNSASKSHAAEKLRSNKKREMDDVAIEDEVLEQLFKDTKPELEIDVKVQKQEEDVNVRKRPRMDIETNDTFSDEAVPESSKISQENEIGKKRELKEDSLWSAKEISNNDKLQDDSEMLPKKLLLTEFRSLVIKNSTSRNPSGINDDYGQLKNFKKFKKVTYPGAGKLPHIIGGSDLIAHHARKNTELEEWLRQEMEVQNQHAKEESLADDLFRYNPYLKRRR
UniProt P31749: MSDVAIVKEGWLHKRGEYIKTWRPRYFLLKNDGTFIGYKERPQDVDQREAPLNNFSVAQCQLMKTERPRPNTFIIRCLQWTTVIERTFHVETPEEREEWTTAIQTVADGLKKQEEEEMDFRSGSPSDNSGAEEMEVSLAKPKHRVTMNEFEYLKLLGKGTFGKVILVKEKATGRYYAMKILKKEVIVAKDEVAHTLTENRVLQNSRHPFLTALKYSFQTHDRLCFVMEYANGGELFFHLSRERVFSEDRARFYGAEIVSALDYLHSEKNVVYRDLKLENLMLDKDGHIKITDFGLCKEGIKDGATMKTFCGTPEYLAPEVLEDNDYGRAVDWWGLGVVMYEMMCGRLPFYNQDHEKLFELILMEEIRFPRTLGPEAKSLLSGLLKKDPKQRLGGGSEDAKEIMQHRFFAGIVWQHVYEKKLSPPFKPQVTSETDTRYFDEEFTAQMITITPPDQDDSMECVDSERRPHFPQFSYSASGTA

Legend:
[1] = molecular target: T1, MRE11 (human (endogenous in GC92)) (UniProt P49959); experiment: proximity ligation; Duolink in situ PLA on fixed, permeabilised cells; antibody pairs anti-MRE11/anti-NBS1, anti-MRE11/anti-PKB, anti-RAD50/anti-PKB, anti-NBS1/anti-HA; with or without 5 Gy IR, with or without PKB or PKB kd expression
T1 sequence: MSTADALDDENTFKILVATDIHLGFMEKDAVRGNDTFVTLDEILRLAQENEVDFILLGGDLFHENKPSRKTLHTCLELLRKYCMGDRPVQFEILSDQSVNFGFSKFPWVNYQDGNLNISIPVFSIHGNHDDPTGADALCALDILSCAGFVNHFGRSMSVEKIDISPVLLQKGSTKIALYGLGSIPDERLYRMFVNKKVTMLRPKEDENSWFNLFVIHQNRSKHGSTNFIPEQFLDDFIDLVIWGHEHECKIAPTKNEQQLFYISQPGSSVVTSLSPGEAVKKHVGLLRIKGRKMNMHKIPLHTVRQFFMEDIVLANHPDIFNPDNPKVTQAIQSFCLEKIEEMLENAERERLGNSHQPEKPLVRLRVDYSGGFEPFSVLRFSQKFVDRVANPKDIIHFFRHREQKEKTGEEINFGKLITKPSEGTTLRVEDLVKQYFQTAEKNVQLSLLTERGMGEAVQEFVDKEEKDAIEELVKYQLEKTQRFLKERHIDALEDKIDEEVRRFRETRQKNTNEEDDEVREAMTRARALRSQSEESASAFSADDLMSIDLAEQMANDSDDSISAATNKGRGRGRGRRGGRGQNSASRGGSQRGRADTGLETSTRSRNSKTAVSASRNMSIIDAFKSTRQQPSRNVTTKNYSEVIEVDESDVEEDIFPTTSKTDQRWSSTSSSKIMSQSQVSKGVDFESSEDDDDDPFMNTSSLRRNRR

[2] = molecular target: RAD50 (human (endogenous in GC92)) (UniProt Q92878); experiment: as above
[3] = molecular target: NBS1 (human (endogenous in GC92)) (UniProt O60934); experiment: as above
FLAG-MRE11 WT = molecular target: T2, FLAG-MRE11 WT (UniProt P49959); experiment: co-IP; anti-FLAG (M2) immunoprecipitation of FLAG-MRE11 from extracts of GC92 cells overexpressing HA-PKB and FLAG-MRE11; 25 mM Tris-HCl pH 7.5, 150 mM NaCl, 1 mM EDTA, 0.5% NP40; extracts treated with DNase I; HA-PKB detected by anti-HA western blot
T2 sequence: T1 sequence

| Substance | binding [1] | binding [2] | binding [3] | binding (FLAG-MRE11 WT) |
| --- | --- | --- | --- | --- |
| PKB (from UniProt P31749 1-480) (enzyme) | binds | binds |  |  |
| HA-PKB (from UniProt P31749 1-480) (enzyme) |  |  | binds | binds |
